# These are yes or no findings as the source states them, for the method shown. A result given as binding can be weak or reduced; the word gives no strength. Where a sequence is shown, tags or fusion partners need not be part of it.
# What was measured:
# GFP-IRS2-S303A (mouse) = molecular target: T1, GFP-IRS2-S303A (mouse) (UniProt P81122); assay: far-Western, overlay or dot blot; GFP-tagged IRS-2 pulled down with GFP-Trap from HEK293 or Flp-In HEK293 lysates, SDS-PAGE, nitrocellulose; membrane incubated overnight at 4°C with 14-3-3ζ-HRP, ECL; cells serum starved, IGF-1, or PI-103, wortmannin or Akti-1/2 before IGF-1; both purified
# T1 sequence: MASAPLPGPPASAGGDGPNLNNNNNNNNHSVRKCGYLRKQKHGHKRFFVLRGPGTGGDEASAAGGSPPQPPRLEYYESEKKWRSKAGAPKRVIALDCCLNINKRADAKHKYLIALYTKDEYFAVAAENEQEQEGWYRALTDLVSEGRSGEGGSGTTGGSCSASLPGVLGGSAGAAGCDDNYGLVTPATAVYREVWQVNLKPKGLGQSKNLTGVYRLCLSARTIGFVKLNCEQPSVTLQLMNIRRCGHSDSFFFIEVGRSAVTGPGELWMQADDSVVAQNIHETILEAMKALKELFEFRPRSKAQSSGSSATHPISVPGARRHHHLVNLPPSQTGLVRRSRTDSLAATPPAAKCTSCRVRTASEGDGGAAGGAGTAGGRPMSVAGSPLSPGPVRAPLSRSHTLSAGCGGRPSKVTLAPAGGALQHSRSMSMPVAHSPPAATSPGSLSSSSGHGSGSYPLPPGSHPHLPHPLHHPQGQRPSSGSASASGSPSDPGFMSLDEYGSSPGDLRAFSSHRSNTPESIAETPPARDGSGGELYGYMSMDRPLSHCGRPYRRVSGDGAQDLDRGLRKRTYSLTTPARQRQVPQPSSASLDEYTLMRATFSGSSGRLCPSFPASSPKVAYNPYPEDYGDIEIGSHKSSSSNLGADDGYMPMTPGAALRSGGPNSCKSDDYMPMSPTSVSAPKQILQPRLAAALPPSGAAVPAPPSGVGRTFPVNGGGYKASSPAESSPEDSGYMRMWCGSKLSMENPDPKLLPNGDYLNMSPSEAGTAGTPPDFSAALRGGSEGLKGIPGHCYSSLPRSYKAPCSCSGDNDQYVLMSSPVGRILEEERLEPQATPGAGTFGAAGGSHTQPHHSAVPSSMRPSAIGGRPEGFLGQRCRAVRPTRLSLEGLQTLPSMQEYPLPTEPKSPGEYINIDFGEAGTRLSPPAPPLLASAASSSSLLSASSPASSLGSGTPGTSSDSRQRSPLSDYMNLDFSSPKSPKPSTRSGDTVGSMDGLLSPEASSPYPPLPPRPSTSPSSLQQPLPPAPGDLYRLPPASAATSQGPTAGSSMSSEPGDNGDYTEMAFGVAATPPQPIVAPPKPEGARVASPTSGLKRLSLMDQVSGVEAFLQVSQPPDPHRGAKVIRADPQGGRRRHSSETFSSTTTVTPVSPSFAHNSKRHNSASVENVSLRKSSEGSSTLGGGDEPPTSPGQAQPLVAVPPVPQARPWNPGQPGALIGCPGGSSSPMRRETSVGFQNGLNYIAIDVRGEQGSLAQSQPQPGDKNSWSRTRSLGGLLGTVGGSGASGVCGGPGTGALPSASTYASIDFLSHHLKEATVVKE
# GFP-IRS2-1-600 (mouse) = molecular target: T2, GFP-IRS2-1-600 (mouse) (UniProt P81122); assay: as above
# T2 sequence: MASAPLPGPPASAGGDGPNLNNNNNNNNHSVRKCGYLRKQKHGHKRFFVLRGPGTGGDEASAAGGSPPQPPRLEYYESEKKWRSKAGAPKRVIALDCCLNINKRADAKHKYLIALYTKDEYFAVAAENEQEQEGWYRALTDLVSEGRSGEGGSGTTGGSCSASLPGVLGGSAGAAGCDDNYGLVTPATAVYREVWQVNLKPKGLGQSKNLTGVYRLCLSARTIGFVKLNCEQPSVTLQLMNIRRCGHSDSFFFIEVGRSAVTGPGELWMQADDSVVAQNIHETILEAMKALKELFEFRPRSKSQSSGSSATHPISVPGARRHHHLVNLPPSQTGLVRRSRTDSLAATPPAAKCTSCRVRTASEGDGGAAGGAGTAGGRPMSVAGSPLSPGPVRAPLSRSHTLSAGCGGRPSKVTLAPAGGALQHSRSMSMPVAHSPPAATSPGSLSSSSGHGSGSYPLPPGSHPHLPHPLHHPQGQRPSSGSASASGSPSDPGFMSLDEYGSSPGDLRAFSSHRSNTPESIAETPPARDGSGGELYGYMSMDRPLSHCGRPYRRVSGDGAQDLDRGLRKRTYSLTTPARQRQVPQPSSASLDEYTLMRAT
substance,measurement,setting,value
Recombinant human 14-3-3ζ-HRP,binding,GFP-IRS2-S303A (mouse),binds
same,binding,GFP-IRS2-1-600 (mouse),binds

# Reference: publication PMC3422239
